Experimental data from patent US20060183130A1 (VANDERBILT UNIVERSITY, published 2006).
No constants are given. Whether binding was seen depends on the method and setting. Binding seen in cells or lysates may run through a third protein. Some binding calls cover weakened binding; strength is not graded here.

T1: mouse p19ARF (murine p19Arf) (mouse) (UniProt Q64364)
T1 sequence: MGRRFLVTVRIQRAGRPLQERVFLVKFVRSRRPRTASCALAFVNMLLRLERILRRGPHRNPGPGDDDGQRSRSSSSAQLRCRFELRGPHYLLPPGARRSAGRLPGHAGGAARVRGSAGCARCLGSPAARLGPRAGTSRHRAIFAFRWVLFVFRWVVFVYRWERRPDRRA

B1: mouse p19ARF (murine p19Arf) (other)
chain: T1 sequence

How the values were obtained:
[1] = molecular target: T1, mouse p19ARF (murine p19Arf) (mouse); test: converse co-IP with ARF antibody from transfected Cos-7 cells, immunoblot for c-Myc (FIG. 2B)
[2] = molecular target: c-Myc (exogenous, full length, expressed from pRcCMV-Myc2) (UniProt P01108); test: co-IP, figure legend title (FIGS. 2A-F)
[3] = molecular target: c-Myc (exogenous, full length, expressed from pRcCMV-Myc2) (UniProt P01108); test: co-IP, summary of the experiments (exogenous proteins)
[4] = molecular target: c-Myc (exogenous, full length, expressed from pRcCMV-Myc2) (UniProt P01108); test: co-IP with c-Myc antibody under stringent detergent conditions from transfected Cos-7 cells, immunoblot with ARF antibody (FIG. 2A)

Molecule	binding [1]	binding [2]	binding [3]	binding [4]
c-Myc (exogenous, full length, expressed from pRcCMV-Myc2) (from UniProt P01108 1-439)	binds			
B1		binds	binds	binds
